Measured values published in US9096583B2, “Substituted 1,2,5-oxadiazole compounds and their use as herbicides II” (BASF SE, priority 2011, dated 2015).
Some entries share one result that the patent states for a list of compounds.

Legend:
[1] = test system: AMARE; assay: greenhouse post-emergence herbicidal test, AMARE; type: in vivo, Amaranthus retroflexus; conditions: post-emergence method, application rate 0.25 kg/ha, scale from 0 to 100
[2] = test system: AMARE; assay: greenhouse pre-emergence herbicidal test, AMARE; type: in vivo, Amaranthus retroflexus; conditions: pre-emergence method, application rate 0.25 kg/ha, scale from 0 to 100
[3] = test system: AVEFA; assay: greenhouse post-emergence herbicidal test, AVEFA; type: in vivo, Avena fatua; conditions: post-emergence method, application rate 0.25 kg/ha, scale from 0 to 100
[4] = test system: CHEAL; assay: greenhouse post-emergence herbicidal test, CHEAL; type: in vivo, Chenopodium album; conditions: post-emergence method, application rate 0.25 kg/ha, scale from 0 to 100
[5] = test system: POLCO; assay: greenhouse post-emergence herbicidal test, POLCO; type: in vivo, Polygonum convulvulus; conditions: post-emergence method, application rate 0.25 kg/ha, scale from 0 to 100
[6] = test system: SETVI; assay: greenhouse post-emergence herbicidal test, SETVI; type: in vivo, Setaria viridis; conditions: post-emergence method, application rate 0.25 kg/ha, scale from 0 to 100
[7] = test system: ECHCG; assay: greenhouse post-emergence herbicidal test, ECHCG; type: in vivo, Echinochloa crus-galli; conditions: post-emergence method, application rate 0.25 kg/ha, scale from 0 to 100
[8] = test system: ECHCG; assay: greenhouse pre-emergence herbicidal test, ECHCG; type: in vivo, Echinochloa crus-galli; conditions: pre-emergence method, application rate 0.25 kg/ha, scale from 0 to 100
[9] = test system: APESV; assay: greenhouse pre-emergence herbicidal test, APESV; type: in vivo, Apera spica-venti; conditions: pre-emergence method, application rate 0.25 kg/ha, scale from 0 to 100

COc1nonc1NC(=O)c1ccc2c(c1Cl)S(=O)(=O)CCC2(C)C [I″.A-8]
herbicidal activity against AMARE [1]: very good herbicidal activity (a very good herbicidal activity is given at values of at least 85) | herbicidal activity against AMARE [2]: very good herbicidal activity (a very good herbicidal activity is given at values of at least 85) | herbicidal activity against AVEFA [3]: very good herbicidal activity (a very good herbicidal activity is given at values of at least 85) | herbicidal activity against CHEAL [4]: very good herbicidal activity (a very good herbicidal activity is given at values of at least 85) | herbicidal activity against POLCO [5]: very good herbicidal activity (a very good herbicidal activity is given at values of at least 85) | herbicidal activity against SETVI [6]: very good herbicidal activity (a very good herbicidal activity is given at values of at least 85) | herbicidal activity against ECHCG [7]: very good herbicidal activity (a very good herbicidal activity is given at values of at least 85) | herbicidal activity against ECHCG [8]: very good herbicidal activity (a very good herbicidal activity is given at values of at least 85) | herbicidal activity against APESV [9]: very good herbicidal activity (a very good herbicidal activity is given at values of at least 85)
